# Percent effect of library compounds

Values are the deposited “Percent Effect”, in %.
How 0% and 100% were set is not recorded. Most values in the screen are low, and negative values occur.
This is an unselected part of the compounds tested.
Two or more numbers in one place are separate tests of the same structure; such repeats can differ widely.

A: 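Whole-cell growth test on Mycobacterium tuberculosis, read after 3 days in glucose-containing 7H9 medium; the read-out is not stated. Concentration: 50 µM. The record gives no direction; compounds that gave an IC50 in retests scored well above the rest, so higher reads as more growth inhibition. Of about 69,000 compounds tested this way, about 760 (1.1%) reached 50% or more in at least one test.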
B: 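Growth of Mycobacterium tuberculosis over 4 days (cholesterol / DPPC medium with tyloxapol); the read-out is not stated. Concentration: 50 µM. Direction is inferred from retests: higher values go with more growth inhibition. Size under these conditions: about 69,000 compounds, about 370 of them at 50% or above in at least one test.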

{"structure": "CN1CCN(Cc2c(Cl)ccc(O)c2Cl)CC1C(=O)O", "stereo": "centres undefined", "A": -16.2, "B": -25.82}
{"structure": "Cc1ccc(Br)c(S(=O)(=O)NCc2ccnn2C)c1", "A": 2.229, "B": 2.324}
{"structure": "CN(C)C(=O)CN1CCc2onc(-c3ccccc3F)c2C1", "A": -13.68, "B": -18.72}
{"structure": "CCc1nc(CNc2ccc(F)c(F)c2)no1", "A": 5.382, "B": 22.46}
{"structure": "O=C(NCCc1ccccn1)c1[nH]nc2c1CCCC2", "A": 27.64, "B": 10.05}
{"structure": "Cl.NC1CCN(C(=O)c2c(F)cccc2Br)CC1", "A": "1.757 and -6.838", "B": 3.909}
{"structure": "c1cnc(N2CCC(C3CCN(CCCn4cccn4)C3)CC2)nc1", "stereo": "centres undefined", "A": 13.66, "B": 4.088}
{"structure": "CCn1c(CN2CCN(CCO)CC2)nc2c(F)cccc21", "A": 6.933, "B": -1.1}
{"structure": "C=C(C)CN(CC)C(=O)c1cc(C)ccc1NS(C)(=O)=O", "A": 4.625, "B": "-7.059 and -4.729"}
{"structure": "CC(C)(C)C(N)c1nc(-c2nnc[nH]2)no1", "stereo": "centres undefined", "A": 17.81, "B": 3.812}
{"structure": "COc1ccc2c(ccn2CCC(=O)N[C@H](C(=O)O)C(C)C)c1", "A": -11.01, "B": -1.316}
{"structure": "N#CC1(NC(=O)CN2CCC(c3ccnn3CCO)CC2)CCCC1", "A": -14.81, "B": 10.2}
{"structure": "CC(=O)Nc1nc(CN2CCOC(Cn3cc(C)cn3)C2)cs1", "stereo": "centres undefined", "A": -16.15, "B": -14.14}
{"structure": "[H][C@]12CC[C@]([H])(CN(Cc3nnc(-c4ccccc4)o3)C1)N(CCOC)C2=O", "A": 0.3929, "B": -22.93}
{"structure": "CNC(=O)COc1ccc(CNCc2c(C)nn(C)c2N(C)C)cc1", "A": -2.038, "B": 19.75}
{"structure": "CCC(C)(C)C1CCCN1C(=O)c1coc(S(=O)(=O)NC)c1", "stereo": "centres undefined", "A": "-34.07 and -3.099", "B": -12.9}
{"structure": "Cc1ccccc1NC(=O)N1CCN(Cc2noc(C3CC3)n2)CC1", "A": 25.44, "B": -4.522}
{"structure": "c1ccc(CN2CCOC[C@H]2c2nc(-c3ccncc3)c[nH]2)nc1", "A": "-2 and 9.02", "B": -0.6954}
{"structure": "CCn1ccnc1CN(C)Cc1nc(CCC(C)C)no1", "A": "-1.853 and -11.28", "B": -0.6945}
{"structure": "CC(C)c1nc(-c2cc(C(=O)N3CCN(C)CC3)c3ccccn23)cs1.O=C(O)C(F)(F)F", "A": "4.228 and -18.9", "B": 3.91}
{"structure": "Cn1cc(NC(=O)c2cc[nH]n2)cc(Cl)c1=O", "A": -27.92, "B": 82.38}
{"structure": "Cc1ccc(NC2CCN(C(=O)CCc3ccncc3)CC2)nn1", "A": "-4.463 and -10.98", "B": 11.46}
{"structure": "COc1ccc(N(C)C(=O)c2cccc(S(C)(=O)=O)c2)cn1", "A": 0.3314, "B": 3.84}
{"structure": "COc1cc(CNC(c2ccccc2)c2nccn2C)cc(OC)c1", "stereo": "centres undefined", "A": 0.4409, "B": -8.72}

Some entries from above, unchanged:

- COc1ccc2c(ccn2CCC(=O)N[C@H](C(=O)O)C(C)C)c1 | A: -11.01%; B: -1.316%
- C=C(C)CN(CC)C(=O)c1cc(C)ccc1NS(C)(=O)=O | A: 4.625%; B: -7.059% and -4.729%

Measurements from “University of Dundee, Small-Polar-MMV Screening Library” (2021), ChEMBL document CHEMBL3988442.